Results on three molecules are retold here after PMC10728194.

Amino acid sequences for entries named in this document (tags omitted).
UniProt Q8C078: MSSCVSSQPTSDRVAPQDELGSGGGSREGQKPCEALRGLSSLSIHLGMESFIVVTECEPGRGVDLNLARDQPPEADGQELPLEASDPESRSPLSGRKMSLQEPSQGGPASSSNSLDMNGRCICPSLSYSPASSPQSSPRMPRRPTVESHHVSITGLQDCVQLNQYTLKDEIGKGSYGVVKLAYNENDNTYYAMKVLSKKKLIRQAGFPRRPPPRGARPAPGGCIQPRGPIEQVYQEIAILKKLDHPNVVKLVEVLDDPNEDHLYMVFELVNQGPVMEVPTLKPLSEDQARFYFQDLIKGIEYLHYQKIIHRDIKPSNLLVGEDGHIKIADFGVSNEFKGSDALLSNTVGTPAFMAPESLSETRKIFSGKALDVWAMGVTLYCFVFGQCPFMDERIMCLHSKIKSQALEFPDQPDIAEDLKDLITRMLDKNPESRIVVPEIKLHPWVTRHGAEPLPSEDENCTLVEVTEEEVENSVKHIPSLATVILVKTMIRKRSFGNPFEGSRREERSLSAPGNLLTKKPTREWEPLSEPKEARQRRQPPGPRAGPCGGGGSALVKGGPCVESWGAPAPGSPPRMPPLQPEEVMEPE

Results are given in words; binding and its absence hold for the method and conditions named. In cells and extracts the contact can be indirect. Some results given as binding are weak or reduced against the parent protein; the word gives no strength. Tags and fused reporters may be left off the sequences shown.

The target of assay [1] is T1, Flag-tagged Cdo1 (cysteine dioxygenase type 1), wild type (mouse) (UniProt P60334).
T1 sequence: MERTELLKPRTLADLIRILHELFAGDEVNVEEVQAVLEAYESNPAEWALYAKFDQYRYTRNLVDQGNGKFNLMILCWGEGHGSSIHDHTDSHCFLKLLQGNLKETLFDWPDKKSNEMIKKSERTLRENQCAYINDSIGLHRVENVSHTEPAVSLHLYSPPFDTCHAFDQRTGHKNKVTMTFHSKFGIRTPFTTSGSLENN
The experiment in a line: co-IP; primary hepatocytes infected with AD-Flag-Cdo1; immunoprecipitation from cell lysates with anti-Flag beads, then western blotting.

Assay [2] addresses Camkk2 (mouse (endogenous in primary hepatocytes)) (UniProt Q8C078). Description: co-IP; lysates of primary hepatocytes immunoprecipitated with antibody against Camkk2, then western blotting; also after infection with AD-Cdo1^WT or AD-Cdo1^Y157F (more AMPKα with Camkk2) and after ablation of Cdo1 by AD-Cre (less AMPKα with Camkk2). A general note: Immunoblotting shows a protein as a band on a membrane.

B1: LKB1 (enzyme, UniProt Q9WTK7 1-436)
chain: MDVADPEPLGLFSEGELMSVGMDTFIHRIDSTEVIYQPRRKRAKLIGKYLMGDLLGEGSYGKVKEVLDSETLCRRAVKILKKKKLRRIPNGEANVKKEIQLLRRLRHRNVIQLVDVLYNEEKQKMYMVMEYCVCGMQEMLDSVPEKRFPVCQAHGYFRQLIDGLEYLHSQGIVHKDIKPGNLLLTTNGTLKISDLGVAEALHPFAVDDTCRTSQGSPAFQPPEIANGLDTFSGFKVDIWSAGVTLYNITTGLYPFEGDNIYKLFENIGRGDFTIPCDCGPPLSDLLRGMLEYEPAKRFSIRQIRQHSWFRKKHPLAEALVPIPPSPDTKDRWRSMTVVPYLEDLHGRAEEEEEEDLFDIEDGIIYTQDFTVPGQVLEEEVGQNGQSHSLPKAVCVNGTEPQLSSKVKPEGRPGTANPARKVCSSNKIRRLSACKQQ
Take B1: the binding result in assay [1] was “no binding”.

B2: Cdo1 (cysteine dioxygenase type 1), endogenous (enzyme, UniProt P60334 1-200)
chain: MERTELLKPRTLADLIRILHELFAGDEVNVEEVQAVLEAYESNPAEWALYAKFDQYRYTRNLVDQGNGKFNLMILCWGEGHGSSIHDHTDSHCFLKLLQGNLKETLFDWPDKKSNEMIKKSERTLRENQCAYINDSIGLHRVENVSHTEPAVSLHLYSPPFDTCHAFDQRTGHKNKVTMTFHSKFGIRTPFTTSGSLENN
On to B2, for which the binding result in assay [2] is “binds”.

B3: Flag-tagged Cdo1 (cysteine dioxygenase type 1), wild type (enzyme, UniProt P60334 1-200)
chain: MERTELLKPRTLADLIRILHELFAGDEVNVEEVQAVLEAYESNPAEWALYAKFDQYRYTRNLVDQGNGKFNLMILCWGEGHGSSIHDHTDSHCFLKLLQGNLKETLFDWPDKKSNEMIKKSERTLRENQCAYINDSIGLHRVENVSHTEPAVSLHLYSPPFDTCHAFDQRTGHKNKVTMTFHSKFGIRTPFTTSGSLENN
On to B3, for which, in assay [2], the binding entry is recorded as “binds”.
